The supplement of paper PMC10011410
Values are raw readings; no control value is given beside them.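 Each value averages three technical replicates run on separate plates. Reagent-free control wells on every plate corrected for the cells' own fluorescence, and DMSO-treated wells served as vehicle controls. No active or hit threshold is defined for these live-cell readings.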

Key:
U-2 OS [1] = test: AUC of Cytotox red (membrane-compromised) object count (AUC (object count x time)); higher = more apoptotic or dead cells
Experimental: (§1)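 Live-cell Incucyte imaging of U-2 OS cells with Caspase-3/7 Green and Cytotox Red reagents. Compounds were tested mostly at 5, 10 and 20 uM, and cells were imaged every 4 h for up to 60 h. Value is the area under the curve of positive object counts over time, per channel: green = caspase 3/7, red = membrane-compromised, overlap = both.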

U-2 OS [2] = test: AUC of caspase 3/7-positive object count (AUC (object count x time)); higher = more apoptotic or dead cells
Experimental: as §1

CCCC1(c2ccccc2)NC(=O)N(CC(=O)N(C)Cc2c(F)cccc2Cl)C1=O (centres undefined)
AUC of Cytotox red (U-2 OS [1]; 5 µM): 39
AUC of Cytotox red (U-2 OS [1]; 10 µM): 44.5
AUC of Cytotox red (U-2 OS [1]; 20 µM): 41.6
AUC of caspase 3/7-positive object count (U-2 OS [2]; 5 µM): 46.2
AUC of caspase 3/7-positive object count (U-2 OS [2]; 10 µM): 38.3
AUC of caspase 3/7-positive object count (U-2 OS [2]; 20 µM): 43.9

Cc1nc(Nc2ncc(C(=O)Nc3c(C)cccc3Cl)s2)cc(N2CCN(CCO)CC2)n1
AUC of Cytotox red (U-2 OS [1]; 5 µM): 95
AUC of Cytotox red (U-2 OS [1]; 10 µM): 170
AUC of Cytotox red (U-2 OS [1]; 20 µM): 390
AUC of caspase 3/7-positive object count (U-2 OS [2]; 5 µM): 138
AUC of caspase 3/7-positive object count (U-2 OS [2]; 10 µM): 221
AUC of caspase 3/7-positive object count (U-2 OS [2]; 20 µM): 455

CCC(=O)CCCCC[C@@H]1NC(=O)[C@H]2CCCCN2C(=O)[C@H]([C@@H](C)CC)NC(=O)[C@H](Cc2cn(OC)c3ccccc23)NC1=O
AUC of Cytotox red (U-2 OS [1]; 5 µM): 932
AUC of Cytotox red (U-2 OS [1]; 10 µM): 867
AUC of Cytotox red (U-2 OS [1]; 20 µM): 541
AUC of caspase 3/7-positive object count (U-2 OS [2]; 5 µM): 1100
AUC of caspase 3/7-positive object count (U-2 OS [2]; 10 µM): 1210
AUC of caspase 3/7-positive object count (U-2 OS [2]; 20 µM): 1150

O=[N+]([O-])c1c(Cl)cc(Cl)c2nsnc12
AUC of Cytotox red (U-2 OS [1]; 5 µM): 423
AUC of Cytotox red (U-2 OS [1]; 10 µM): 733
AUC of Cytotox red (U-2 OS [1]; 20 µM): 961
AUC of caspase 3/7-positive object count (U-2 OS [2]; 5 µM): 478
AUC of caspase 3/7-positive object count (U-2 OS [2]; 10 µM): 853
AUC of caspase 3/7-positive object count (U-2 OS [2]; 20 µM): 805

Oc1ccc(/C=C/c2cc(O)cc(O)c2)cc1
AUC of Cytotox red (U-2 OS [1]; 5 µM): 21.3
AUC of Cytotox red (U-2 OS [1]; 10 µM): 41.3
AUC of Cytotox red (U-2 OS [1]; 20 µM): 33.6
AUC of caspase 3/7-positive object count (U-2 OS [2]; 5 µM): 39
AUC of caspase 3/7-positive object count (U-2 OS [2]; 10 µM): 53.2
AUC of caspase 3/7-positive object count (U-2 OS [2]; 20 µM): 31.7

COc1cc(OC)c2ccccc2c1C=C1C(=O)NC(=S)NC1=O
AUC of Cytotox red (U-2 OS [1]; 5 µM): 236
AUC of Cytotox red (U-2 OS [1]; 10 µM): 136
AUC of Cytotox red (U-2 OS [1]; 20 µM): 91.7
AUC of caspase 3/7-positive object count (U-2 OS [2]; 5 µM): 362
AUC of caspase 3/7-positive object count (U-2 OS [2]; 10 µM): 161
AUC of caspase 3/7-positive object count (U-2 OS [2]; 20 µM): 77.2

COc1ccc(/C(Cl)=C(\C=O)c2ccc(OC)cc2)cc1
AUC of Cytotox red (U-2 OS [1]; 5 µM): 81.2
AUC of Cytotox red (U-2 OS [1]; 10 µM): 74
AUC of Cytotox red (U-2 OS [1]; 20 µM): 277
AUC of caspase 3/7-positive object count (U-2 OS [2]; 5 µM): 97.9
AUC of caspase 3/7-positive object count (U-2 OS [2]; 10 µM): 81.8
AUC of caspase 3/7-positive object count (U-2 OS [2]; 20 µM): 326

CCCCCOc1ccc(/C=C\c2cccc(O)c2C(=O)O)cc1
AUC of Cytotox red (U-2 OS [1]; 5 µM): 34.3
AUC of Cytotox red (U-2 OS [1]; 10 µM): 48.2
AUC of Cytotox red (U-2 OS [1]; 20 µM): 59.3
AUC of Cytotox red (U-2 OS [1]; 40 µM): 454
AUC of Cytotox red (U-2 OS [1]; 80 µM): 94.4
AUC of caspase 3/7-positive object count (U-2 OS [2]; 5 µM): 17.5
AUC of caspase 3/7-positive object count (U-2 OS [2]; 10 µM): 39.9
AUC of caspase 3/7-positive object count (U-2 OS [2]; 20 µM): 43.8
AUC of caspase 3/7-positive object count (U-2 OS [2]; 40 µM): 55.7
AUC of caspase 3/7-positive object count (U-2 OS [2]; 80 µM): 48.7

COc1ccc(N(C(=O)CCl)C(C(=O)NCCc2ccccc2)c2cccs2)cc1Cl (centres undefined)
AUC of Cytotox red (U-2 OS [1]; 5 µM): 1910
AUC of Cytotox red (U-2 OS [1]; 10 µM): 2150
AUC of Cytotox red (U-2 OS [1]; 20 µM): 1840
AUC of caspase 3/7-positive object count (U-2 OS [2]; 5 µM): 665
AUC of caspase 3/7-positive object count (U-2 OS [2]; 10 µM): 833
AUC of caspase 3/7-positive object count (U-2 OS [2]; 20 µM): 890

C/C1=C/C(=O)O[C@@H]2C[C@@H](CC[C@H](C)/C=C\CC1)O[C@@](O)([C@@H]1CSC(=O)N1)C2
AUC of Cytotox red (U-2 OS [1]; 5 µM): 283
AUC of Cytotox red (U-2 OS [1]; 10 µM): 358
AUC of Cytotox red (U-2 OS [1]; 20 µM): 487
AUC of caspase 3/7-positive object count (U-2 OS [2]; 5 µM): 269
AUC of caspase 3/7-positive object count (U-2 OS [2]; 10 µM): 389
AUC of caspase 3/7-positive object count (U-2 OS [2]; 20 µM): 596
